Results are given in words; binding and its absence hold for the method and conditions named. Binding seen in cells or lysates may run through a third protein. Some entries that bind do so weakly or less than the wild type.
T1: electrogenic Na+/HCO3- cotransporter 1 (NBCe1) (mouse (endogenous in mouse brain)) (UniProt O88343)
T1 sequence: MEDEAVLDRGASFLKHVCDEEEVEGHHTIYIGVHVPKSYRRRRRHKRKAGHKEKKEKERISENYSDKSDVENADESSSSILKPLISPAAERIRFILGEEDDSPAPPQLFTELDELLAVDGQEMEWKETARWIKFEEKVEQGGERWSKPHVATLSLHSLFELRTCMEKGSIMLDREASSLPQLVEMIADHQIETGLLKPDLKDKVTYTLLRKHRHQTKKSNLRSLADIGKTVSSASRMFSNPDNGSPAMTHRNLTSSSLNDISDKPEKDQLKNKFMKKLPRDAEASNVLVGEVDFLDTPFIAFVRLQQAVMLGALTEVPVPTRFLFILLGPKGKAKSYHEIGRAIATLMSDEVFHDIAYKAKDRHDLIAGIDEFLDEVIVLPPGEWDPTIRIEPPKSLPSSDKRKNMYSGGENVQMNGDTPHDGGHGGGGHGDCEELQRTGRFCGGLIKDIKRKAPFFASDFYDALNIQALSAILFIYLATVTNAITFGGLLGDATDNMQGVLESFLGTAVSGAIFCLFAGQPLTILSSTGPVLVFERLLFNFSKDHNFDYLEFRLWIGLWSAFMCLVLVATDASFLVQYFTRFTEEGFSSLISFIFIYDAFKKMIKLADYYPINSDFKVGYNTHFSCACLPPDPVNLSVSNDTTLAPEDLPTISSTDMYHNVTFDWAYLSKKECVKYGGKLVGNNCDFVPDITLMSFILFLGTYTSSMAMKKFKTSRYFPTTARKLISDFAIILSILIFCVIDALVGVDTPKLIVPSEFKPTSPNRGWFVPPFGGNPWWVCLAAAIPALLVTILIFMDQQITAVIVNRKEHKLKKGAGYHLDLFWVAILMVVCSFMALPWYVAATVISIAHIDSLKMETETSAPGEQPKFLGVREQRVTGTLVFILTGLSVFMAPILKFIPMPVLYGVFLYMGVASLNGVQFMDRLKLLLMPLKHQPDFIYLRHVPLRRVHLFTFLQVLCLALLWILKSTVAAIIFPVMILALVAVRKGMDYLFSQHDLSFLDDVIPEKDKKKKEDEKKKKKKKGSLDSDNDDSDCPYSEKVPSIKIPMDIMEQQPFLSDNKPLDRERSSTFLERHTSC

T2: K+/Cl- cotransporter 2 (KCC2) (mouse (endogenous in mouse brain)) (UniProt Q91V14)
T2 sequence: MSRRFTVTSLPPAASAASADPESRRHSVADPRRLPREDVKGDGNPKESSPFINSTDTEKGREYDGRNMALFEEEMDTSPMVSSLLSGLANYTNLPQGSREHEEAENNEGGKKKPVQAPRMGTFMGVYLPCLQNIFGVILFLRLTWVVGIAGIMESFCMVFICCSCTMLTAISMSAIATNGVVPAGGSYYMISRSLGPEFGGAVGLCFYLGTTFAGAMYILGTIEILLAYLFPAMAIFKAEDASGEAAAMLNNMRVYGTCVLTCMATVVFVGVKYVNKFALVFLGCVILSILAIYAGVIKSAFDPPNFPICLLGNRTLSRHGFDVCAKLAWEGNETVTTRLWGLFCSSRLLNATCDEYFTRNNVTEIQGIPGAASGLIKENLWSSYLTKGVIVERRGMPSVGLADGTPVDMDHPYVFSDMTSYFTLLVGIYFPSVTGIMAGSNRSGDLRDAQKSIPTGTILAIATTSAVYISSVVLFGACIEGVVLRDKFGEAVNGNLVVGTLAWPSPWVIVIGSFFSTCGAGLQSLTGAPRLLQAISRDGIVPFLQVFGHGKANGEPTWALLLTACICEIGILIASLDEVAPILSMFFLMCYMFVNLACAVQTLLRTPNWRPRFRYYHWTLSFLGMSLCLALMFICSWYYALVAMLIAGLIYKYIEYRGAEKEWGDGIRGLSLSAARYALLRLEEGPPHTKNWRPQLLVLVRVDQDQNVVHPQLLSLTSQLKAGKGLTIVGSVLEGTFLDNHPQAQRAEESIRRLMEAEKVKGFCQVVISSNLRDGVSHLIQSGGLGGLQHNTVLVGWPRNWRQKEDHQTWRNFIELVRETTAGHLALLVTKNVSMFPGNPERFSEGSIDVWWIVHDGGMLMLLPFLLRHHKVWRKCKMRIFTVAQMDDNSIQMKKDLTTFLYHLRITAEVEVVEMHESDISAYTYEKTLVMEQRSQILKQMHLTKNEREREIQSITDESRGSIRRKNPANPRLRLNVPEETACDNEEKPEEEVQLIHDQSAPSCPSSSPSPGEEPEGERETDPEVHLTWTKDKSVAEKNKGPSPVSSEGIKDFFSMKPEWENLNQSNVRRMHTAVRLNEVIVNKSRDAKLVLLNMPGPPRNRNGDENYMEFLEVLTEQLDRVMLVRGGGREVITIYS

B1: K+/Cl- cotransporter 2 (KCC2) (protein, UniProt Q91V14 1-1138)
chain: T2 sequence
B2: electrogenic Na+/HCO3- cotransporter 1 (NBCe1) (protein, UniProt O88343 1-1079)
chain: T1 sequence

Assays:
[1] = target: T1, electrogenic Na+/HCO3- cotransporter 1 (NBCe1) (mouse (endogenous in mouse brain)); test: co-IP; whole tissue homogenate from newborn (P0) mouse hippocampus in non-denaturing lysis buffer; 500 ug protein, precleared; anti-KCC2, anti-SLC4A4 or mouse IgG on protein A-Sepharose beads, overnight at 4°C; immunoblot
[2] = target: T1, electrogenic Na+/HCO3- cotransporter 1 (NBCe1) (mouse (endogenous in mouse brain)); test: co-IP; crude membranes from 3-5 month-old mouse whole brain in non-denaturing lysis buffer (50 mM Tris-HCl pH 7.4, 300 mM NaCl, 5 mM EDTA, Triton X-100); 500 ug protein, precleared; anti-KCC2, anti-SLC4A4 or mouse IgG on protein A-Sepharose beads, overnight at 4°C; immunoblot
[3] = target: T2, K+/Cl- cotransporter 2 (KCC2) (mouse (endogenous in mouse brain)); test: co-IP; whole tissue homogenate from newborn (P0) mouse hippocampus in non-denaturing lysis buffer; 500 ug protein, precleared; anti-KCC2, anti-SLC4A4 or mouse IgG on protein A-Sepharose beads, overnight at 4°C; immunoblot
[4] = target: T2, K+/Cl- cotransporter 2 (KCC2) (mouse (endogenous in mouse brain)); test: co-IP; crude membranes from 3-5 month-old mouse whole brain in non-denaturing lysis buffer (50 mM Tris-HCl pH 7.4, 300 mM NaCl, 5 mM EDTA, Triton X-100); 500 ug protein, precleared; anti-KCC2, anti-SLC4A4 or mouse IgG on protein A-Sepharose beads, overnight at 4°C; immunoblot

Binder	binding [1]	binding [2]	binding [3]	binding [4]
B1	binds	binds		
B2			binds	binds
